The values that follow come from patent US20110039783A1 (DAIICHI SANKYO COMPANY LIMITED, priority 2007, published 2011).

“And” between values parts separate entries of the source, which are not always exact repeats. Equal values may be shown once. Where no end group is shown, it is not given here.

This series is described as follows: general procedure: Fmoc solid-phase peptide synthesis; Fmoc-Amide resin; HBTU/HOBt. Conditions: whole synthesis, scale 0.25 nmol.

NRDLFFRRLQAYFK-NH2 showed a crude mass of 352.6 mg. Besides, the isolated mass (run 1) was 267.7 mg and 245 mg.
